# Record: PubChem BioAssay AID1224830 (NIAID, 2016)
# Assay: 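Host factors that control LPS-induced TNF expression in human macrophages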 (primary screen)
# Cell system: human THP-1 monocytic leukaemia cells, TNF dual-luciferase reporter clone, PMA-differentiated to macrophage-like cells
# Reagent: siRNA pool against human genes, 50 nM
# Duration: LPS for 4 h, given about 3 days after siRNA transfection
# Treatment: bacterial LPS (TLR4 ligand), 10 ng/ml
# Read-out: 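TNF firefly reporter luminescence divided by renilla, normalised to the plate median, then turned into a robust z-score for each replicate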
# Reading the numbers: TNF reporter robust z-score: higher = stronger TNF reporter response to LPS
# Hit rule: 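a well is active when its z-score exceeds 2.8 or falls below -1.5; control wells carry no call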
# In all, the deposit lists about 18,000 reagents; this is a part drawn at random. Over the whole deposit, about 2,900 (16%) got an active call. 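Calls are made per well; low scores hint the gene aids the LPS response, high scores that it dampens it.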 Repeated entries: four replicate wells of each siRNA pool.
gene symbol,TNF reporter robust z-score,activity call
SPPL2C (GeneID 162540),0.69,inactive
SPPL2C (GeneID 162540),0.35,inactive
SPPL2C (GeneID 162540),0.86,inactive
SPPL2C (GeneID 162540),0.89,inactive
SPCS1 (GeneID 28972),-0.34,inactive
SPCS1 (GeneID 28972),0.05,inactive
SPCS1 (GeneID 28972),1.61,inactive
SPCS1 (GeneID 28972),1.79,inactive
FASTKD4 (GeneID 9238),0.56,inactive
FASTKD4 (GeneID 9238),0.51,inactive
FASTKD4 (GeneID 9238),1.24,inactive
FASTKD4 (GeneID 9238),0.92,inactive
TNNI2 (GeneID 7136),-0.84,inactive
TNNI2 (GeneID 7136),-1.02,inactive
TNNI2 (GeneID 7136),-0.63,inactive
TNNI2 (GeneID 7136),-0.21,inactive
ZNF500 (GeneID 26048),-0.37,inactive
ZNF500 (GeneID 26048),-0.16,inactive
ZNF500 (GeneID 26048),1.93,inactive
ZNF500 (GeneID 26048),0.76,inactive
PELI2 (GeneID 57161),-0.12,inactive
PELI2 (GeneID 57161),-0.17,inactive
PELI2 (GeneID 57161),-0.74,inactive
PELI2 (GeneID 57161),-0.52,inactive
USP43 (GeneID 124739),0.84,inactive
USP43 (GeneID 124739),0.51,inactive
USP43 (GeneID 124739),-0.39,inactive
USP43 (GeneID 124739),-0.49,inactive
XIRP2 (GeneID 129446),-1.13,inactive
XIRP2 (GeneID 129446),-0.29,inactive
XIRP2 (GeneID 129446),-1.56,active
XIRP2 (GeneID 129446),0.87,inactive
MARCHF8 (GeneID 220972),-0.83,inactive
MARCHF8 (GeneID 220972),1.33,inactive
MARCHF8 (GeneID 220972),2.38,inactive
MARCHF8 (GeneID 220972),1.04,inactive
DOCK4 (GeneID 9732),-0.77,inactive
DOCK4 (GeneID 9732),0.53,inactive
DOCK4 (GeneID 9732),-1.14,inactive
DOCK4 (GeneID 9732),0.01,inactive
SSX4B (GeneID 548313),-0.44,inactive
SSX4B (GeneID 548313),1.28,inactive
SSX4B (GeneID 548313),0.83,inactive
SSX4B (GeneID 548313),1.06,inactive
KLHDC7B (GeneID 113730),-0.71,inactive
KLHDC7B (GeneID 113730),0.26,inactive
KLHDC7B (GeneID 113730),-0.5,inactive
KLHDC7B (GeneID 113730),0.17,inactive
ARHGEF10 (GeneID 9639),-0.05,inactive
ARHGEF10 (GeneID 9639),1.39,inactive
ARHGEF10 (GeneID 9639),0.64,inactive
ARHGEF10 (GeneID 9639),1.2,inactive
PCSK4 (GeneID 54760),0.59,inactive
PCSK4 (GeneID 54760),0.01,inactive
PCSK4 (GeneID 54760),1.5,inactive
PCSK4 (GeneID 54760),0.53,inactive
MATN3 (GeneID 4148),-1.74,active
MATN3 (GeneID 4148),-0.97,inactive
MATN3 (GeneID 4148),-0.96,inactive
MATN3 (GeneID 4148),-1.12,inactive
OR2F1 (GeneID 26211),-1.53,active
OR2F1 (GeneID 26211),-1.44,inactive
OR2F1 (GeneID 26211),-1.55,active
OR2F1 (GeneID 26211),-1.36,inactive
EIF4H (GeneID 7458),-1.17,inactive
EIF4H (GeneID 7458),-1.04,inactive
EIF4H (GeneID 7458),-0.56,inactive
EIF4H (GeneID 7458),0.28,inactive
APBB1 (GeneID 322),-0.71,inactive
APBB1 (GeneID 322),-0.39,inactive
APBB1 (GeneID 322),-0.05,inactive
APBB1 (GeneID 322),0.35,inactive
UBAC1 (GeneID 10422),0.29,inactive
UBAC1 (GeneID 10422),-0.98,inactive
UBAC1 (GeneID 10422),0,inactive
UBAC1 (GeneID 10422),0.06,inactive
NCR3 (GeneID 259197),-1.37,inactive
NCR3 (GeneID 259197),-0.41,inactive
NCR3 (GeneID 259197),-2.15,active
NCR3 (GeneID 259197),-1.14,inactive
ASAH1 (GeneID 427),-1.68,active
ASAH1 (GeneID 427),-1.08,inactive
ASAH1 (GeneID 427),-1.55,active
ASAH1 (GeneID 427),-0.96,inactive
REEP2 (GeneID 51308),-0.98,inactive
REEP2 (GeneID 51308),-0.58,inactive
REEP2 (GeneID 51308),-1.24,inactive
REEP2 (GeneID 51308),-0.99,inactive
MBNL2 (GeneID 10150),-0.47,inactive
MBNL2 (GeneID 10150),-0.34,inactive
MBNL2 (GeneID 10150),-1.14,inactive
MBNL2 (GeneID 10150),-1.37,inactive
MZB1 (GeneID 51237),-0.88,inactive
MZB1 (GeneID 51237),-1.26,inactive
MZB1 (GeneID 51237),-0.57,inactive
MZB1 (GeneID 51237),-1.07,inactive
C1orf216 (GeneID 127703),0.94,inactive
C1orf216 (GeneID 127703),1.75,inactive
C1orf216 (GeneID 127703),-0.02,inactive
C1orf216 (GeneID 127703),1.19,inactive
SLC6A11 (GeneID 6538),-0.53,inactive
SLC6A11 (GeneID 6538),13.7,active
SLC6A11 (GeneID 6538),-0.06,inactive
SLC6A11 (GeneID 6538),1.22,inactive
HEATR6 (GeneID 63897),-0.35,inactive
HEATR6 (GeneID 63897),-1.29,inactive
HEATR6 (GeneID 63897),-0.75,inactive
HEATR6 (GeneID 63897),-0.7,inactive
RAB7B (GeneID 338382),1.5,inactive
RAB7B (GeneID 338382),2.07,inactive
RAB7B (GeneID 338382),0.24,inactive
RAB7B (GeneID 338382),1.32,inactive
